From article PMC11166998
Results are given in words; binding and its absence hold for the method and conditions named. In cells and extracts the contact can be indirect. Some entries that bind do so weakly or less than the wild type.

Protein sequences, listed by entry. Tags and fused reporters are not part of them.
UniProt Q969H0: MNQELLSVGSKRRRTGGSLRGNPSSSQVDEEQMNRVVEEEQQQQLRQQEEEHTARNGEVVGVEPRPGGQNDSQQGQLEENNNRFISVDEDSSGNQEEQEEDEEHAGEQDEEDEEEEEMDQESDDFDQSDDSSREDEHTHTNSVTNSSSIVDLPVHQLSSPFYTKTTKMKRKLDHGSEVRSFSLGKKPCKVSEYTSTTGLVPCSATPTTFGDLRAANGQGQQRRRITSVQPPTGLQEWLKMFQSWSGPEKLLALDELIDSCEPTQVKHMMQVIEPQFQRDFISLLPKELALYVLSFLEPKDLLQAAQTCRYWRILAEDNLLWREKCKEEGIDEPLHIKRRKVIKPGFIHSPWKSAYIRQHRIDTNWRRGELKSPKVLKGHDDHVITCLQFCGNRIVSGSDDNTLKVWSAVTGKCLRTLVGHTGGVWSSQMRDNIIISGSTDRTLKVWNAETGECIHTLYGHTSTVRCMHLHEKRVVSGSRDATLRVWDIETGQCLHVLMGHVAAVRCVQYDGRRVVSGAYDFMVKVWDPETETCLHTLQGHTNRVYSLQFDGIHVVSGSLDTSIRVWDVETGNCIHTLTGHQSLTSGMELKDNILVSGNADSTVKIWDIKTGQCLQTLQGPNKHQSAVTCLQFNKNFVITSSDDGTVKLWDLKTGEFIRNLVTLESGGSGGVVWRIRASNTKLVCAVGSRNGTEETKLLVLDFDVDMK

Biological target: T1, AGEs receptor 1 (AGER1) (human (endogenous in HAVSMCs)) (UniProt P39656)
T1 sequence: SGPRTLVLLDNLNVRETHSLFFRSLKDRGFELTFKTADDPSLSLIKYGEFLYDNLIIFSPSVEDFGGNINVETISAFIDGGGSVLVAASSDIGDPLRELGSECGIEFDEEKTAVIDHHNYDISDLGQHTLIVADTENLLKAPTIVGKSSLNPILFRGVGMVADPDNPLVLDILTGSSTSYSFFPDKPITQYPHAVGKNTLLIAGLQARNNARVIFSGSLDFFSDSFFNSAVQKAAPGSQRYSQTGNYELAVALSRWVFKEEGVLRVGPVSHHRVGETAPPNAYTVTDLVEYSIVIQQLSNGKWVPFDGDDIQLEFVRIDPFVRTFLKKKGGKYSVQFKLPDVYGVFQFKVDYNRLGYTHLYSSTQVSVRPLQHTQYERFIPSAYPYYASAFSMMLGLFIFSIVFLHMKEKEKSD
Assay: co-IP; endogenous proteins extracted from HAVSMCs, IP Assay kit (Proteintech), antibodies 1 µg/mg protein, immunoblotting; cells with or without AGE (200 µg/ml) and MG132 (10 µM) for 24 h; which of the two was precipitated is not told

binding: binds
Substance: F-box and WD repeat domain-containing 7 (FBXW7) (from UniProt Q969H0 1-707)
